Measurements reported in PubChem BioAssay AID1224830 (NIAID, 2016)

- Aim: 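Genes whose knock-down alters the TNF-alpha reporter response to LPS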 (primary screen)
- Cell system: human THP-1 monocytic leukaemia cells, TNF dual-luciferase reporter clone, PMA-differentiated to macrophage-like cells
- Knock-down reagent: siRNA pool against human genes, 50 nM
- Timing: LPS for 4 h, given about 3 days after siRNA transfection
- Conditions: bacterial LPS (TLR4 ligand), 10 ng/ml
- Measurement: 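TNF firefly reporter luminescence divided by renilla, normalised to the plate median, then turned into a robust z-score for each replicate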
- Scale: TNF reporter robust z-score: higher = stronger TNF reporter response to LPS
- Active means: 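a well is active when its z-score exceeds 2.8 or falls below -1.5; control wells carry no call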
In all, the deposit lists about 18,000 reagents; this is an unselected part. About 2,900 of all reagents (16%) were called active. 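Calls are made per well; low scores hint the gene aids the LPS response, high scores that it dampens it.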 Repeated entries: four replicate wells of each siRNA pool.

{"Gene": "FLRT3 (fibronectin leucine rich transmembrane protein 3)", "TNF reporter robust z-score": -0.18, "activity call": "inactive"}
{"Gene": "FLRT3 (fibronectin leucine rich transmembrane protein 3)", "TNF reporter robust z-score": -0.7, "activity call": "inactive"}
{"Gene": "FLRT3 (fibronectin leucine rich transmembrane protein 3)", "TNF reporter robust z-score": 0.24, "activity call": "inactive"}
{"Gene": "FLRT3 (fibronectin leucine rich transmembrane protein 3)", "TNF reporter robust z-score": -0.61, "activity call": "inactive"}
{"Gene": "ZCWPW1 (zinc finger CW-type and PWWP domain containing 1)", "TNF reporter robust z-score": 0.08, "activity call": "inactive"}
{"Gene": "ZCWPW1 (zinc finger CW-type and PWWP domain containing 1)", "TNF reporter robust z-score": 1, "activity call": "inactive"}
{"Gene": "ZCWPW1 (zinc finger CW-type and PWWP domain containing 1)", "TNF reporter robust z-score": -0.14, "activity call": "inactive"}
{"Gene": "ZCWPW1 (zinc finger CW-type and PWWP domain containing 1)", "TNF reporter robust z-score": 0.99, "activity call": "inactive"}
{"Gene": "THSD1 (thrombospondin type 1 domain containing 1)", "TNF reporter robust z-score": -0.74, "activity call": "inactive"}
{"Gene": "THSD1 (thrombospondin type 1 domain containing 1)", "TNF reporter robust z-score": -0.7, "activity call": "inactive"}
{"Gene": "THSD1 (thrombospondin type 1 domain containing 1)", "TNF reporter robust z-score": -0.91, "activity call": "inactive"}
{"Gene": "THSD1 (thrombospondin type 1 domain containing 1)", "TNF reporter robust z-score": -0.84, "activity call": "inactive"}
{"Gene": "BICC1 (BicC family RNA binding protein 1)", "TNF reporter robust z-score": -0.34, "activity call": "inactive"}
{"Gene": "BICC1 (BicC family RNA binding protein 1)", "TNF reporter robust z-score": -1.04, "activity call": "inactive"}
{"Gene": "BICC1 (BicC family RNA binding protein 1)", "TNF reporter robust z-score": -0.31, "activity call": "inactive"}
{"Gene": "BICC1 (BicC family RNA binding protein 1)", "TNF reporter robust z-score": 0.17, "activity call": "inactive"}

The list goes on, starting with the last 7 of the part before.
{"Gene": "THSD1 (thrombospondin type 1 domain containing 1)", "TNF reporter robust z-score": -0.7, "activity call": "inactive"}
{"Gene": "THSD1 (thrombospondin type 1 domain containing 1)", "TNF reporter robust z-score": -0.91, "activity call": "inactive"}
{"Gene": "THSD1 (thrombospondin type 1 domain containing 1)", "TNF reporter robust z-score": -0.84, "activity call": "inactive"}
{"Gene": "BICC1 (BicC family RNA binding protein 1)", "TNF reporter robust z-score": -0.34, "activity call": "inactive"}
{"Gene": "BICC1 (BicC family RNA binding protein 1)", "TNF reporter robust z-score": -1.04, "activity call": "inactive"}
{"Gene": "BICC1 (BicC family RNA binding protein 1)", "TNF reporter robust z-score": -0.31, "activity call": "inactive"}
{"Gene": "BICC1 (BicC family RNA binding protein 1)", "TNF reporter robust z-score": 0.17, "activity call": "inactive"}
{"Gene": "UBR2 (ubiquitin protein ligase E3 component n-recognin 2)", "TNF reporter robust z-score": -0.35, "activity call": "inactive"}
{"Gene": "UBR2 (ubiquitin protein ligase E3 component n-recognin 2)", "TNF reporter robust z-score": 0.09, "activity call": "inactive"}
{"Gene": "UBR2 (ubiquitin protein ligase E3 component n-recognin 2)", "TNF reporter robust z-score": 0.19, "activity call": "inactive"}
{"Gene": "COL14A1 (collagen type XIV alpha 1 chain)", "TNF reporter robust z-score": -1.08, "activity call": "inactive"}
{"Gene": "COL14A1 (collagen type XIV alpha 1 chain)", "TNF reporter robust z-score": 0.63, "activity call": "inactive"}
{"Gene": "COL14A1 (collagen type XIV alpha 1 chain)", "TNF reporter robust z-score": -1.02, "activity call": "inactive"}
{"Gene": "COL14A1 (collagen type XIV alpha 1 chain)", "TNF reporter robust z-score": 1.45, "activity call": "inactive"}
{"Gene": "HRH3 (histamine receptor H3)", "TNF reporter robust z-score": 0.06, "activity call": "inactive"}
{"Gene": "HRH3 (histamine receptor H3)", "TNF reporter robust z-score": -0.02, "activity call": "inactive"}
{"Gene": "HRH3 (histamine receptor H3)", "TNF reporter robust z-score": 1.09, "activity call": "inactive"}
{"Gene": "HRH3 (histamine receptor H3)", "TNF reporter robust z-score": -0.61, "activity call": "inactive"}
{"Gene": "EXOSC10 (exosome component 10)", "TNF reporter robust z-score": -1.13, "activity call": "inactive"}
{"Gene": "EXOSC10 (exosome component 10)", "TNF reporter robust z-score": -1.5, "activity call": "inactive"}
{"Gene": "EXOSC10 (exosome component 10)", "TNF reporter robust z-score": -0.87, "activity call": "inactive"}
{"Gene": "EXOSC10 (exosome component 10)", "TNF reporter robust z-score": -0.19, "activity call": "inactive"}
{"Gene": "PYCR1 (pyrroline-5-carboxylate reductase 1)", "TNF reporter robust z-score": 0.36, "activity call": "inactive"}
{"Gene": "PYCR1 (pyrroline-5-carboxylate reductase 1)", "TNF reporter robust z-score": 0.02, "activity call": "inactive"}
{"Gene": "PYCR1 (pyrroline-5-carboxylate reductase 1)", "TNF reporter robust z-score": -0.41, "activity call": "inactive"}
{"Gene": "PYCR1 (pyrroline-5-carboxylate reductase 1)", "TNF reporter robust z-score": -0.92, "activity call": "inactive"}
{"Gene": "TNS4 (tensin 4)", "TNF reporter robust z-score": -0.87, "activity call": "inactive"}
{"Gene": "TNS4 (tensin 4)", "TNF reporter robust z-score": 0.52, "activity call": "inactive"}
{"Gene": "TNS4 (tensin 4)", "TNF reporter robust z-score": -0.24, "activity call": "inactive"}
{"Gene": "TNS4 (tensin 4)", "TNF reporter robust z-score": 0.76, "activity call": "inactive"}
{"Gene": "PDCL (phosducin like)", "TNF reporter robust z-score": 1.64, "activity call": "inactive"}
{"Gene": "PDCL (phosducin like)", "TNF reporter robust z-score": 2.3, "activity call": "inactive"}
{"Gene": "PDCL (phosducin like)", "TNF reporter robust z-score": 1.73, "activity call": "inactive"}
{"Gene": "PDCL (phosducin like)", "TNF reporter robust z-score": -0.19, "activity call": "inactive"}
{"Gene": "SUN2 (Sad1 and UNC84 domain containing 2)", "TNF reporter robust z-score": -1.15, "activity call": "inactive"}
{"Gene": "SUN2 (Sad1 and UNC84 domain containing 2)", "TNF reporter robust z-score": -0.83, "activity call": "inactive"}
{"Gene": "SUN2 (Sad1 and UNC84 domain containing 2)", "TNF reporter robust z-score": -0.97, "activity call": "inactive"}
{"Gene": "TMPRSS11E (transmembrane serine protease 11E)", "TNF reporter robust z-score": -0.18, "activity call": "inactive"}
{"Gene": "TMPRSS11E (transmembrane serine protease 11E)", "TNF reporter robust z-score": 0.92, "activity call": "inactive"}
{"Gene": "TMPRSS11E (transmembrane serine protease 11E)", "TNF reporter robust z-score": 0.83, "activity call": "inactive"}
{"Gene": "TMPRSS11E (transmembrane serine protease 11E)", "TNF reporter robust z-score": 1.23, "activity call": "inactive"}
